Primary screen of a compound library

Protein sequences, listed by entry. Tags and fused reporters are not part of them. Residues count along the entry.
UniProt Q8IDJ8, 1-583: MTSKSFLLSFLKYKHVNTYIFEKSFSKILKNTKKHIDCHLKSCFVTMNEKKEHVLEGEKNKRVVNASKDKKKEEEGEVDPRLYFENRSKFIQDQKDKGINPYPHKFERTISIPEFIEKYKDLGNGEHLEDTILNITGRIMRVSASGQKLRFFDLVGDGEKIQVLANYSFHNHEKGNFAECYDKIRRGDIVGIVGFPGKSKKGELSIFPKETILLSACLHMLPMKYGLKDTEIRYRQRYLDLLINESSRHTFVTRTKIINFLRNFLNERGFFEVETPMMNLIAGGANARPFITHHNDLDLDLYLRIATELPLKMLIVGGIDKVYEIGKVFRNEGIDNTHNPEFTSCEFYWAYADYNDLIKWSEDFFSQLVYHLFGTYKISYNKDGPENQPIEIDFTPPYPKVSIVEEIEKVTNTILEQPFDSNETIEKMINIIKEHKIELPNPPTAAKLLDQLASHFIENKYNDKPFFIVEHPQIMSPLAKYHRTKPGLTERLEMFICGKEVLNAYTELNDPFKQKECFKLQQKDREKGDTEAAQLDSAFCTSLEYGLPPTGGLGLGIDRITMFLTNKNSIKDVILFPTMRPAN
UniProt Q4DA54, 1-478: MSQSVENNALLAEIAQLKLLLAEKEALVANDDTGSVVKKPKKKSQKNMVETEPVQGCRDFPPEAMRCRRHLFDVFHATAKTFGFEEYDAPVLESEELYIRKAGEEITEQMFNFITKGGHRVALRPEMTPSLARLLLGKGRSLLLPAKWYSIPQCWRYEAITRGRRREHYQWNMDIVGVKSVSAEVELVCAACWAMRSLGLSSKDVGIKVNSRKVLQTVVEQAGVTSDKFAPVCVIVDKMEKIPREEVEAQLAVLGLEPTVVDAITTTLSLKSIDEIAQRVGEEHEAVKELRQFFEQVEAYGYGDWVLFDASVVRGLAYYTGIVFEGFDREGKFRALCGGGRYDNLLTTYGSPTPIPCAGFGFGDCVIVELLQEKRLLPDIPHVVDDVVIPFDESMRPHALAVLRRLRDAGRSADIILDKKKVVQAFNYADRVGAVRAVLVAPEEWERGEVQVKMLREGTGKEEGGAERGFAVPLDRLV

Results are given as percent effect.
How 0% and 100% were set is not recorded. Most values in the screen are low, and negative values occur.
This is an unselected part of the compounds tested.
Two or more numbers in one place are separate tests of the same structure; such repeats can differ widely.
A dash means the value is not listed here; it may have been measured.

Leishmania in macrophages: 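Cell assay of Leishmania donovani living inside macrophages; the read-out is not stated. Compounds at 30 µM. Direction is inferred from retests: higher values go with stronger inhibition. Size under these conditions: about 69,000 compounds, about 1,000 of them at 50% or above in at least one test.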
T. brucei: 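Whole-parasite assay of Trypanosoma brucei over 72 hours; the read-out is not stated. Tested at 30 µM. The record gives no direction; compounds that gave an IC50 in retests scored well above the rest, so higher reads as stronger inhibition. Values scatter widely below zero; nearly all retest evidence comes from the higher of the two concentrations used. Size under these conditions: about 64,000 compounds, about 940 of them at 50% or above in at least one test.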
Toxoplasma: 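Assay of Toxoplasma gondii numbers, read through their beta-galactosidase reporter with a colour substrate. Concentration: 10 µM. Higher reads as fewer parasites (inferred from which compounds were picked for retests). Size under these conditions: about 67,000 compounds, about 260 of them at 50% or above in at least one test.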
PfKRS1: 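Enzyme assay of the cytosolic lysyl-tRNA synthetase in 384-well plates, read by luminescence. Target: Lysine-tRNA ligase, Plasmodium falciparum 3D7 (UniProt Q8IDJ8). Concentration: 30 µM. Direction is inferred from only a few compounds that gave an IC50; most scored high, so higher reads as stronger inhibition. About 69,000 compounds were tested under these conditions; 0.071% (about 49) showed 50% or more at least once.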
TcHisRS: 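Enzyme assay of histidyl-tRNA synthetase; the read-out is not stated. Target: Histidine-tRNA ligase, Trypanosoma cruzi CL Brener (UniProt Q4DA54). Compounds at 30 µM. The record gives no direction; compounds that gave an IC50 in retests scored well above the rest, so higher reads as stronger inhibition. About 69,000 compounds were tested under these conditions; 0.045% (about 31) showed 50% or more at least once.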

structure,Leishmania in macrophages,T. brucei,Toxoplasma,PfKRS1,TcHisRS
COCc1nc(C(=O)N2CCCC2c2ccncc2)cs1 (stereo not drawn),30.35%,-8.528%,-7.229%,-1.123%,-1.127%
O=C(O)c1coc(COc2cccc3cnccc23)n1,16.09%,-373.7%,7.836%,1.525%,0%
CC1CN(C(=O)Nc2cccc(CN3CCOC3=O)c2)CCO1 (stereo not drawn),-18.04%,-7.348%,-23.89%,4.15%,4.018%
c1nc(N2CCOCC2)ncc1-c1cncn1CCCN1CCCCC1,-,-,-,1.344%,8.333%
O=C(O)C(F)(F)F.O=C(O)C(F)(F)F.O=C(O)CN1CCC(F)(F)C2(CCN(c3ccccc3)C2)C1 (stereo not drawn),21.44%,-,-19.88%,-,-
COC(=O)[C@H]1C[C@@H](O)CCN1S(=O)(=O)c1cc(C)c(Cl)cc1C,10.18%,-12.66%,-16.8%,-1.842%,9.639%
CN(Cc1cccnc1)C1CCCN(Cc2noc(C3CC3)n2)C1 (stereo not drawn),-4.664%,-,-2.889%,-0.3069%,0.5882%
Cc1nn(C)c(C)c1CNCc1cccnc1N1CCOCC1,-9.479%,-5.964%,-27%,2.352%,2.01%
[H][C@@]12OCCN(C(=O)C3CCCC3)[C@@]1([H])CC[C@H]2OCC1CCOCC1,0.05332%,-41.08%,17.45%,-,-
O=C(O)C(F)(F)F.[H][C@@]12COC[C@H](C(=O)N3CCOCC3)[C@]1([H])CN(CC1CCCC1)C2,14.74%,-46.99%,-0.7012%,-,-
OCCn1cc(CN2CCN(CCOc3cccc(F)c3)CC2)cn1,33.76%,-,9.781%,-1.877%,7.872%
O=C(c1cc(C2CC2)[nH]n1)N1CCCN(c2nccs2)CC1,27.22%,10.07%,-0.2674%,4.47%,1.724%
CC(=O)Nc1ccc(C(=O)N2CCSCC2c2ccc(C)o2)cc1 (stereo not drawn),21.96%,-17.2%,-37.7%,7.554%,4.663%
COc1cccc(NC(=O)NCC(C)(O)CCSC)c1OC (stereo not drawn),-5.82% and 4.007%,15.89%,-2.059%,3.361%,3.093%
CNC(=O)COc1cccc(CNCc2c(C)noc2C)c1,-10.45%,-28%,4.466%,-4.09%,-0.9804%
CCOCc1cnc2n1CCN(C(=O)c1cccc3c1OCCO3)C2C (stereo not drawn),23.54%,-1.752%,-1.908%,3.908%,4.523%
CCn1cc(CN2CCCN(C(=O)c3ccc(C)nc3)CC2)cn1,23.82%,-,7.433%,-1.68%,4.956%
O=S(=O)(c1ccc(F)cc1)N1CCCn2cnc(CN3CCCC3)c2C1,-16.95%,-0.3816%,-0.338%,7.803%,3.922%
CCOc1ncccc1CNC(=O)N1CCCC1c1cccs1 (stereo not drawn),3.085%,-25.76%,-,2.719%,3.448%
COCc1nc(C(=O)N2CCCC2c2c(C)nn(C)c2C)cs1 (stereo not drawn),19.12%,1.706%,-0.6187%,2.758%,4.887%
CN(C)Cc1noc2c1CN(Cc1ccc[nH]1)CC2,24.42%,-37.96%,17.65%,5.446%,5.556%
CC(=O)N1CCC2(CC1)CN(C)C(=O)C[C@H]2C(F)(F)F.Cl,22.91%,-52.1%,-0.1596%,-,-
CC(c1nc(-c2ccccc2)no1)N1CCc2c(ncn2C2CC2)C1 (stereo not drawn),14.45%,-49.8%,20.36%,3.201%,6.957%
Cc1nc(CN2CCc3cc(C(=O)O)c(N(C)C)nc3CC2)cs1.O=C(O)C(F)(F)F.O=C(O)C(F)(F)F,10.44%,-9.697%,11.9%,-,-
CC(=O)N1CCN(C(=O)NCc2ccc(Cl)s2)CC1,-23.47%,0.3105%,-21.76%,2.442%,1.69%
CN(C)C(=O)[C@@H]1CCO[C@@H]2CCN(CCc3ccccc3)C[C@@H]21,-,-,-,15.47%,2.674%
CCNc1nc(C(=O)N(C)Cc2nc(CC)no2)cs1,-56.33%,-27.33%,12.63%,5.441%,6.748%
CC1c2ncc(COc3cccnc3)n2CCN1C(=O)C1=CCCCC1 (stereo not drawn),-,-,-,-0.109%,8.537%
CCCc1nnc(N2CCC(N3CCCC3)CC2)o1,20.07%,-138.6%,-31.49%,1.221%,10.3%
CCc1nnc(Nc2cc(C)nc(C3CCN(c4ncccn4)C3)n2)s1 (stereo not drawn),-1.99%,-,8.527%,-1.693%,-8.647%
CCN(CC)CCNC(=O)CCc1c(C)nn(-c2ccc(Cl)cc2)c1C,38.09%,4.062%,2.608%,2.43%,2.273%
CN(C)CCn1c(=O)oc2ccc(NC(=O)C3CCCO3)cc21 (stereo not drawn),19.77%,-5.44%,-4.295%,3.204%,0.4149%
CCn1c(C2CCN(C(=O)c3cc(CC(C)C)on3)CC2)nn(C)c1=O,2.556%,-5.73%,5.639%,-2.308%,9.901%
N#CC1COCCN1C(=O)c1cccc2cc[nH]c12 (stereo not drawn),3.602%,-17.05%,12.31%,-0.71%,2.01%
CC(C)(C)c1n[nH]c(C2CN(C(=O)c3cnc[nH]3)CCO2)n1 (stereo not drawn),17.47%,4.983%,9.336%,2.37%,2%
Cc1cc(N2CC[C@H](O)C2)n2nc(C)c(C)c2n1,9.676%,-43.25%,5.251%,3.005%,8.163%
CN(C)CCN1CC(C(=O)N(C)Cc2cc3cc(F)ccc3[nH]2)CC1=O (stereo not drawn),31.92%,-49.06%,11.33%,4.217%,3.004%
CCS(=O)(=O)N1C[C@H]2CC[C@@]3(N=C(C)N(CC(C)C)C3=O)[C@H]2C1,-,-,-,3.344%,3.941%
O=C(O)C(F)(F)F.[H][C@@]12CCCO[C@]1([H])[C@H](NC(=O)C1CC1)CN2Cc1ccoc1,9.059%,-33.76%,-7.916%,-,-
Cc1cccc(CN2CC3(CCN(C(=O)N(C)C)CC3)OCC2=O)n1.O=C(O)C(F)(F)F,1.007%,-49.16%,5.124%,-,-
CC(NC(=O)c1cccc(CN2CCN(C)CC2)c1)c1ccccn1 (stereo not drawn),23.49%,1.903%,-2.337%,1.295%,-4.615%
CC(C)n1c(=O)c2sccc2n(CC(=O)Nc2cccc(Cl)c2)c1=O,-6.032%,-,10.06%,3.571%,-1.775%
CC(C)Oc1ncccc1CNC(=O)NC(C)c1cccs1 (stereo not drawn),19.58%,-46.56%,-3.204%,3.406%,8.458%
COC[C@@H]1CCC[C@]12CN(Cc1ccco1)CCO2.O=C(O)C(F)(F)F,14.66%,-11.82%,-8.533%,-,-
CN(C)c1cccc(C(=O)N2CCCC2c2ncc3c(n2)CCNC3)c1.Cl (stereo not drawn),0.9199% and -3.044%,-32.8%,-12.73%,-,-

The values are deposited in ChEMBL (CHEMBL3988442, “University of Dundee, Small-Polar-MMV Screening Library” (2021)).